These are yes or no findings as the source states them, for the method shown. For some of these results: Binding seen in cells or lysates may run through a third protein. Some entries that bind do so weakly or less than the wild type.
Key:
[1] = biological target: p16^INK4a (full-length human, Gal4 binding domain fusion, yeast two-hybrid bait) (human) (UniProt P42771); assay: two-hybrid; Matchmaker2 Gal4 system, Y190 yeast; p16^INK4a in pAS2 (Gal4 binding domain) as bait, human brain cDNA library in pACT2 (Gal4 transactivation domain) as prey
[2] = biological target: FLAG-tagged BRG1 (full-length) (UniProt P51532); assay: co-IP; U2OS cells co-transfected with MYC-p16^INK4a and FLAG-BRG1, lysed 24 h later in IP-buffer (50 mM Tris pH7.4, 150 mM NaCl, 1 mM EDTA, 1% NP-40, 0.25% sodium deoxycholate); precipitated with mouse anti-Flag antibody on Dynal beads, matched mouse IgG and control vector as controls
[3] = biological target: endogenous p16^INK4a of WS-1 normal human dermal fibroblasts (human (endogenous in WS-1)) (UniProt P42771); assay: co-IP; 5 mg nuclear lysate of WS-1 normal human dermal fibroblasts at passage 20; precipitated with mouse anti-p16^INK4a antibody or matched mouse IgG, protein-A-agarose; endogenous BRG1 detected by blot
[4] = biological target: p16^INK4a induced with IPTG in WMM1175_p16^INK4a melanoma cells (human) (UniProt P42771); assay: co-IP; 5 mg nuclear lysate of WMM1175_p16^INK4a cells induced with 4 mM IPTG or mock treated for 72 hours; precipitated with mouse anti-p16^INK4a antibody or matched mouse IgG, protein-A-agarose; endogenous BRG1 detected by blot

Sequences of proteins named here, by UniProt entry; tags and fusion partners are left off. A change or cut given only in a name is not applied to a line headed by its entry.
UniProt P42771: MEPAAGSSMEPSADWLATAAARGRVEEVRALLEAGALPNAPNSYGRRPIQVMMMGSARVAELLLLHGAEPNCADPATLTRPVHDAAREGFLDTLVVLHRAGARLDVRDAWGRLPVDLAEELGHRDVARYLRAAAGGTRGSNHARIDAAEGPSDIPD
UniProt P51532: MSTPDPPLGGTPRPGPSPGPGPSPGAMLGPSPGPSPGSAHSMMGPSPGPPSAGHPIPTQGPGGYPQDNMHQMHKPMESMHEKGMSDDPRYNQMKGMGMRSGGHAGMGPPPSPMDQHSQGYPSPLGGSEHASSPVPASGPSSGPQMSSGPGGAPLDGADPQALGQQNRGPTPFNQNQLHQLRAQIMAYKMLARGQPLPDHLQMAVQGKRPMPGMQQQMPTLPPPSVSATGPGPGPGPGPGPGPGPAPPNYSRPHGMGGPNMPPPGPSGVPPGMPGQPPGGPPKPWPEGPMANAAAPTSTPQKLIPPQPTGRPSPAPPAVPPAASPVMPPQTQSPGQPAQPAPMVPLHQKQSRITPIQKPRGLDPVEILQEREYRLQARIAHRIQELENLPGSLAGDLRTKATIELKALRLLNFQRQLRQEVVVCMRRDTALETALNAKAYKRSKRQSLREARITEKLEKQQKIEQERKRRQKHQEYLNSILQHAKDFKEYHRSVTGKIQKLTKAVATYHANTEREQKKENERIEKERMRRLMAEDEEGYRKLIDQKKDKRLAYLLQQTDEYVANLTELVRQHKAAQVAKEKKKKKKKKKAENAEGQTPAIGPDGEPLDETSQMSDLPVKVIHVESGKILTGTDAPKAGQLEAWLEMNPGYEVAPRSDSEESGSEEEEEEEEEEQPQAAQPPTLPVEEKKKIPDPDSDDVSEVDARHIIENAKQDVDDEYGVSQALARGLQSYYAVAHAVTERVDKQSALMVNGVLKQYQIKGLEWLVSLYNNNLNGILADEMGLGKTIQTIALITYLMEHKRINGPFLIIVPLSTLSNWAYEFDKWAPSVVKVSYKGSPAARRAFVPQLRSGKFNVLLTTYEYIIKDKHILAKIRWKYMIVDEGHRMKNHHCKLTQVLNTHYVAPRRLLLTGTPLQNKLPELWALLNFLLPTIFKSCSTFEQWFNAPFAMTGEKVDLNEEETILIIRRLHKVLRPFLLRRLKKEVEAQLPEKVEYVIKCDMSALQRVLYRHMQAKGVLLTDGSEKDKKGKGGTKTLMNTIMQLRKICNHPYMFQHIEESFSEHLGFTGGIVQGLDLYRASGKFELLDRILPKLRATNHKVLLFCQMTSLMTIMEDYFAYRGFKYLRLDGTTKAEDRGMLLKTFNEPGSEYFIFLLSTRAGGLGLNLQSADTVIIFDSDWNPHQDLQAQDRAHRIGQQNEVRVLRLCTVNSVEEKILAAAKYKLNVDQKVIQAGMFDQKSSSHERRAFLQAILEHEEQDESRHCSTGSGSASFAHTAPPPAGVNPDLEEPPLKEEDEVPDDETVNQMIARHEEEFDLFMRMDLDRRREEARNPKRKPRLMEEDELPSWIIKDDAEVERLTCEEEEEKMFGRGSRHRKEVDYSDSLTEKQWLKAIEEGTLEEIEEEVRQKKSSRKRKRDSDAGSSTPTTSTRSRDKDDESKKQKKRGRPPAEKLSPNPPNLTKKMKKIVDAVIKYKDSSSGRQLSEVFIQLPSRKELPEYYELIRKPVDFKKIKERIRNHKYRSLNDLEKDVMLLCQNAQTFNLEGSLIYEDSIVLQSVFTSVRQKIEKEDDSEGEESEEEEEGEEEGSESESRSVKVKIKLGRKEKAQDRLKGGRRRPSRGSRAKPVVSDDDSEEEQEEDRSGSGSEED

“BRG1, C-terminal 530 amino acids (Y2H clone, Gal4 transactivation domain fusion) (from UniProt P51532 1118-1647) (domain or fragment)” was tested, and the binding [1] was “binds”.

“MYC-tagged p16^INK4a (from UniProt P42771 1-156)” was tested, and the binding [2] was “binds”.

For “endogenous BRG1 (from UniProt P51532 1-1647)”, the binding [3] was “binds” and the binding [4] was “binds”.

Source: publication PMC2644676
